Reference: paper PMC6354162, “Development of a MD-LC-MS/MS Method to Analyze 3 Bioactive Compounds in Huoxuezhitong Rubber Patch and Application to a Pharmacokinetic Study in Rats” (Evidence-based Complementary and Alternative Medicine : eCAM, 2019)

Columns and labels:
[1] = set-up: method as in PMID 28933096; details: microdialysis probe, in vivo; cited from earlier work
[2] = Adsorption rate to linear microdialysis probe with different perfusion fluids (reverse dialysis method); details: n=2

SMILES	Recovery rate (RR) [1] [%]	adsorption rate (AR) at the last sampling point ([2]; perfusion fluid 10%PG-10%Et-NS) [%]	adsorption rate (AR) at the last sampling point ([2]; perfusion fluid 20% Et-NS) [%]	adsorption rate (AR) at the last sampling point ([2]; perfusion fluid 20%PG-NS) [%]	adsorption rate (AR) at the last sampling point ([2]; perfusion fluid 30% Et-NS) [%]
C=CCc1ccc(O)c(OC)c1 [eugenol]	45.06±1.66	–	–	–	–
COc1ccc(C(C)=O)c(O)c1 [paeonol]	46.80±1.66	4.90±1.67	6.58±1.13	3.72±0.35	2.37±1.32
O=C(/C=C/C=C/c1ccc2c(c1)OCO2)N1CCCCC1 [piperine]	34.15±2.06	–	–	–	–
